± gives the standard deviation of the averaged measurements. The entries are a selection whose mix differs from that of the whole data set.
Compound: Nc1ncnc2c1ncn2[C@@H]1O[C@H](COP(=O)(O)OP(=O)(O)NP(=O)(O)O)[C@@H](O)[C@H]1O [adenylyl imidodiphosphate]
Test: NP40-soluble protein abundance relative to vehicle (solubility fold change) (ratio); higher = more soluble protein in presence of AMP-PNP
How it was run: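 Values are fold changes against the detergent-processed vehicle, based on vsn-normalised intensities. Jurkat crude lysate was treated at eight concentrations from 0.1 to 10 mM (10 min at room temperature, then 3 min at 37 °C), solubilised with 0.8% NP40 and benzonase, ultracentrifuged and analysed by TMT-labelled LC-MS/MS over three independent experiments.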

By UniProt entry, the sequences of proteins in these tests, tags left out. Where a name states a change or a piece, a line headed by the entry shows the natural chain unless it says otherwise.
UniProt Q9UHB7: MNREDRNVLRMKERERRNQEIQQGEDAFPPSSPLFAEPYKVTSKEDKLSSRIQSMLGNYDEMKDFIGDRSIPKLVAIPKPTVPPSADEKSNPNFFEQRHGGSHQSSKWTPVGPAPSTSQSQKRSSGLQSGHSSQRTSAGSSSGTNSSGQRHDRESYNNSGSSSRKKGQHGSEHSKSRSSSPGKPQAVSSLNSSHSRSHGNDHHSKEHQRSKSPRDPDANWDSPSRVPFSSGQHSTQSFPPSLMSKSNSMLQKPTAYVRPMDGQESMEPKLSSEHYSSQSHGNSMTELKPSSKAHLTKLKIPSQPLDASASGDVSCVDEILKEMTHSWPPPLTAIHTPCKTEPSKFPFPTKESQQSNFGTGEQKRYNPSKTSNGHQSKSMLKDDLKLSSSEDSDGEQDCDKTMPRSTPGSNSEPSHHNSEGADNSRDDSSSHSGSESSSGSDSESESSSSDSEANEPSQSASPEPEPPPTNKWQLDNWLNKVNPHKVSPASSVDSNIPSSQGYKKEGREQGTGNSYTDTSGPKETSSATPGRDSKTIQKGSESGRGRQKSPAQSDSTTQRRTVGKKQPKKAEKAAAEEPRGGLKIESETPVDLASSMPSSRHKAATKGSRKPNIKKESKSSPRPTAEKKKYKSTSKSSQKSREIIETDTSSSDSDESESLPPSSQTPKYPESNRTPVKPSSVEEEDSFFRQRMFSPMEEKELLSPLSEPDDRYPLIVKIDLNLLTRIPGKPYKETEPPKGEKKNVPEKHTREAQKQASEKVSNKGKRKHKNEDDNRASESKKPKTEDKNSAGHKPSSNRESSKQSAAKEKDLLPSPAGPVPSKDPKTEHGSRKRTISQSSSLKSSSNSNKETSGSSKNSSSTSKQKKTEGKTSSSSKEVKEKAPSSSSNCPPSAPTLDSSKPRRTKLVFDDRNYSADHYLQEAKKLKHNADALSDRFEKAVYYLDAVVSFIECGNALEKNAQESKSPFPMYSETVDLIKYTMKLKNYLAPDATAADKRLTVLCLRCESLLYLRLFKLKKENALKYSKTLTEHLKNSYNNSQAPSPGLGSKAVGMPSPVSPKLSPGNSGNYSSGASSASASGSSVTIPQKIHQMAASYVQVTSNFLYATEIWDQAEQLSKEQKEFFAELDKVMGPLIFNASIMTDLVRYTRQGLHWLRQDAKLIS
UniProt Q9Y316: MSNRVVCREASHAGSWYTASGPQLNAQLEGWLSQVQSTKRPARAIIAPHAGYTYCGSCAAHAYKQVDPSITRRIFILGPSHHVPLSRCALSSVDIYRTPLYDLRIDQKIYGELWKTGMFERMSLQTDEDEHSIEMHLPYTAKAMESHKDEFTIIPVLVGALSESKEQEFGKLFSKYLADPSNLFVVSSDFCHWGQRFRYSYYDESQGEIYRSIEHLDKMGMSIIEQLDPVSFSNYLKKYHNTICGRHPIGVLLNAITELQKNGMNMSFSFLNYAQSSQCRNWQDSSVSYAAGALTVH
UniProt Q9UBS4: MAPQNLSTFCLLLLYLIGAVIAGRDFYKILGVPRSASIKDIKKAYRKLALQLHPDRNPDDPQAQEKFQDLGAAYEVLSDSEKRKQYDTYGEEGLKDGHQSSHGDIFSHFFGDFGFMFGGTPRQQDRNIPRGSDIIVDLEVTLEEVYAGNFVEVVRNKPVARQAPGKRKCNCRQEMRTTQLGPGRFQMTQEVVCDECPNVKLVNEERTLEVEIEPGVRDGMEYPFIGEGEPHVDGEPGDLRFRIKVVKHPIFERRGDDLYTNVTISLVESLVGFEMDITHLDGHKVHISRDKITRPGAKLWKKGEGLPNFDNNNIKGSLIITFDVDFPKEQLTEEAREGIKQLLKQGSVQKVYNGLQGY
UniProt Q9Y2G5: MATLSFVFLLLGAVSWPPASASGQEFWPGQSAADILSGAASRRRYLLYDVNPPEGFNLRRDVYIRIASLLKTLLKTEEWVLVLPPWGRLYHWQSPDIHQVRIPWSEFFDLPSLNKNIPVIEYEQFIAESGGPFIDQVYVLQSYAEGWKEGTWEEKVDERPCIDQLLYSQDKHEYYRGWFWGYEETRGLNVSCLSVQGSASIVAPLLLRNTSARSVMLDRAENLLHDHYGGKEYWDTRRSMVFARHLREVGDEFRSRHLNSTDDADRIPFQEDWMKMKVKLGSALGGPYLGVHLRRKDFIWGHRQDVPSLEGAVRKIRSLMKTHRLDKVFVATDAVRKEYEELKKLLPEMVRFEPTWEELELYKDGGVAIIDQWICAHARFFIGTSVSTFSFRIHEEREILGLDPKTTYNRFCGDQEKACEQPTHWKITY
UniProt Q9UIJ7: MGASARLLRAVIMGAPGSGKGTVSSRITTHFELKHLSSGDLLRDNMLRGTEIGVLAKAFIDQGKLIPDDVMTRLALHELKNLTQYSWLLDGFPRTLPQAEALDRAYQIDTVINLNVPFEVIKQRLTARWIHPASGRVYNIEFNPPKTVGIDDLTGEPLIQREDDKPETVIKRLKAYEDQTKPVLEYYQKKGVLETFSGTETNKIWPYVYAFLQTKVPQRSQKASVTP
UniProt Q9UNE7: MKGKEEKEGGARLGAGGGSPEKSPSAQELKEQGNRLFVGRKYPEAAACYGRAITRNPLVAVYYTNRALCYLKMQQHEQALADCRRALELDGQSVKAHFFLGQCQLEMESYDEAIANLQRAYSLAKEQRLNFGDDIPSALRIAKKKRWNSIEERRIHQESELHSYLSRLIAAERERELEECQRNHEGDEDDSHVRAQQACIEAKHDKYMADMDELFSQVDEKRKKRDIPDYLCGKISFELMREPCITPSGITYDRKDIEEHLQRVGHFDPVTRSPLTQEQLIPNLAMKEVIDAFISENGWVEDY
UniProt Q9UBW7: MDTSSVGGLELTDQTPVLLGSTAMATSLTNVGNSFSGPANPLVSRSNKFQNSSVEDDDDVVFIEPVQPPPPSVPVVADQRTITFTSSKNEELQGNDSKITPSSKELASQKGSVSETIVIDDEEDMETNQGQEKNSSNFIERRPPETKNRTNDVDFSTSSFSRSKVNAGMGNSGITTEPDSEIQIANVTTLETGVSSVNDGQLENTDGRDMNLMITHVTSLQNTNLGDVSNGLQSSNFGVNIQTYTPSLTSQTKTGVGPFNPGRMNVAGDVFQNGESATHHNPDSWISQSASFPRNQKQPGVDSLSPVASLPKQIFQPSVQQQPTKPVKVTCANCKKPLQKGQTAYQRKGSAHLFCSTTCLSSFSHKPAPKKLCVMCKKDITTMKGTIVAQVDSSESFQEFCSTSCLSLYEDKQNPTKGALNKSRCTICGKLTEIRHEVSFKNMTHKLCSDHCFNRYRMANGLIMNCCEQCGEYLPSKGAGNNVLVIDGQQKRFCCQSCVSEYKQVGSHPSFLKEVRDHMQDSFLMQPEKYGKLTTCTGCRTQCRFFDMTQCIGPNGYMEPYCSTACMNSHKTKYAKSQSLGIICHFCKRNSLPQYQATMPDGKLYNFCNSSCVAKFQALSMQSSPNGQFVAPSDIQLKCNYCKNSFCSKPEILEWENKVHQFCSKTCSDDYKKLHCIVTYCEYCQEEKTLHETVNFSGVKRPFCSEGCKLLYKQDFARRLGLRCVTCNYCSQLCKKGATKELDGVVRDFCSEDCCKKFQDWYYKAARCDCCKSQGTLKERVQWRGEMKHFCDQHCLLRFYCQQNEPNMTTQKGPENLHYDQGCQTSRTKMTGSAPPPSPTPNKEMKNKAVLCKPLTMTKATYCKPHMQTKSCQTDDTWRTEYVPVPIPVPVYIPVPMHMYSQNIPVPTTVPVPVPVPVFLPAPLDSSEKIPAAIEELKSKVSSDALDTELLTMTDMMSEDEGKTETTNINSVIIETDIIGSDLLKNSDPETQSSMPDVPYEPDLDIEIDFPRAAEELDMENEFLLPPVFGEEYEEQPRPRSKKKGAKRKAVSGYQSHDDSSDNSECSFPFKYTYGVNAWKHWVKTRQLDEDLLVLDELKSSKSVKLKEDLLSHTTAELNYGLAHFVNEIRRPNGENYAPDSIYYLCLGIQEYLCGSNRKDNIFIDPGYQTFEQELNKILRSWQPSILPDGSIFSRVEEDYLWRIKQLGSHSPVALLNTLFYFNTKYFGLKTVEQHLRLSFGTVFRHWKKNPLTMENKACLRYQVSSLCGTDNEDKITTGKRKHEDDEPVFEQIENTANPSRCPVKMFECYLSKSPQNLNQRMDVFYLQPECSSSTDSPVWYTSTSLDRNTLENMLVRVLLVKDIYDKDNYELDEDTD
UniProt Q9UHH9: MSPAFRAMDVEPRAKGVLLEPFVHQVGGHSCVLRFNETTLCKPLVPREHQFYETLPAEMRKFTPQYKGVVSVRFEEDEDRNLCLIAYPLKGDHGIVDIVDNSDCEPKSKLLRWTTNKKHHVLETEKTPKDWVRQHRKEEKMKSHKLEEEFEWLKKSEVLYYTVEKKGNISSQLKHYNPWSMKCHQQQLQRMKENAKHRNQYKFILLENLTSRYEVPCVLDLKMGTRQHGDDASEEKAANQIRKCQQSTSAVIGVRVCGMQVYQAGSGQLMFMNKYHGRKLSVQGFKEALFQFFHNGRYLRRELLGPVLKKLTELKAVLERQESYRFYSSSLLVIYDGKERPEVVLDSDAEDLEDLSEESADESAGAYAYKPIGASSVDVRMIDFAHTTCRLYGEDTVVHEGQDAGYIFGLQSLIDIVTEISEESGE
UniProt Q9UP95: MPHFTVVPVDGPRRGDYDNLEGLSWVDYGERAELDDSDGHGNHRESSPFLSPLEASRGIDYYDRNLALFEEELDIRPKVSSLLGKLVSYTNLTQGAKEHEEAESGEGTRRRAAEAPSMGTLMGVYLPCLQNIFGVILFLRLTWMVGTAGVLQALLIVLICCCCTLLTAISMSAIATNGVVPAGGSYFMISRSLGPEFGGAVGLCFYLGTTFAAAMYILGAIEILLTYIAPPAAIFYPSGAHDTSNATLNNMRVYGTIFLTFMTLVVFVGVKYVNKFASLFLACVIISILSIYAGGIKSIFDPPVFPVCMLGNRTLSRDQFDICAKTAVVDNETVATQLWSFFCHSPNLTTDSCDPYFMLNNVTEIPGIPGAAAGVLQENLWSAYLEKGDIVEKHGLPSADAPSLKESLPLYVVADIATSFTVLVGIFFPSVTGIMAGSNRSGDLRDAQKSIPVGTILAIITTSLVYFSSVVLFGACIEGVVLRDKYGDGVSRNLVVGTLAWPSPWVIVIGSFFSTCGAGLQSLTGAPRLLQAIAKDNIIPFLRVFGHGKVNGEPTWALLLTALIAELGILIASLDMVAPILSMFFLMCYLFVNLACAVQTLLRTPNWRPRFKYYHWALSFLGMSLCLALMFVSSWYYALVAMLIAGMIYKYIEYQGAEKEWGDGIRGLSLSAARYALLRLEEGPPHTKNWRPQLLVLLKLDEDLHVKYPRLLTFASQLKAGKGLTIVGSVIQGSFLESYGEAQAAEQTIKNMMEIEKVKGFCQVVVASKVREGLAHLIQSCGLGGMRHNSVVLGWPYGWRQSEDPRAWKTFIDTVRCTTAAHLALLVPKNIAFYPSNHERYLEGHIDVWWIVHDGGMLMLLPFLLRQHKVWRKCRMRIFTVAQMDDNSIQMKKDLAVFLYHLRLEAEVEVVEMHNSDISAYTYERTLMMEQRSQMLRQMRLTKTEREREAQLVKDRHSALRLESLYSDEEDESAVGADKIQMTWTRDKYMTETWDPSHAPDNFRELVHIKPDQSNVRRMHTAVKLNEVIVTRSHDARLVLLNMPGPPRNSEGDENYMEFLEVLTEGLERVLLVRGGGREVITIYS
UniProt Q9UII2: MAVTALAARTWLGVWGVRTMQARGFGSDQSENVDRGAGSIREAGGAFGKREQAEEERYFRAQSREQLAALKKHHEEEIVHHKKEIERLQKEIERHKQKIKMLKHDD
UniProt Q9UKX7: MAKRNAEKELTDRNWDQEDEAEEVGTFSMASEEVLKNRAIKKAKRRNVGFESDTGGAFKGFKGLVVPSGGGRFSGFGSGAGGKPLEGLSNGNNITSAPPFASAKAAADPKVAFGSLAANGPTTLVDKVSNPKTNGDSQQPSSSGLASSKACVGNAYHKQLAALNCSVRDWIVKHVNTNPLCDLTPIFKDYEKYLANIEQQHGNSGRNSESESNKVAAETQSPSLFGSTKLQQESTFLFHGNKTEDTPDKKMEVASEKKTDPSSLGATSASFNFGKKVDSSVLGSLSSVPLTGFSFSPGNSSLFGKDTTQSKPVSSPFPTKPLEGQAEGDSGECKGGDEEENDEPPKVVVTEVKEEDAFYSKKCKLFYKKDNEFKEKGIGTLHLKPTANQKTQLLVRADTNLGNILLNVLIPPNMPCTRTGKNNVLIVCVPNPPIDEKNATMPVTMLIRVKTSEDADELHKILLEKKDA
UniProt Q9UNL4, whole entry: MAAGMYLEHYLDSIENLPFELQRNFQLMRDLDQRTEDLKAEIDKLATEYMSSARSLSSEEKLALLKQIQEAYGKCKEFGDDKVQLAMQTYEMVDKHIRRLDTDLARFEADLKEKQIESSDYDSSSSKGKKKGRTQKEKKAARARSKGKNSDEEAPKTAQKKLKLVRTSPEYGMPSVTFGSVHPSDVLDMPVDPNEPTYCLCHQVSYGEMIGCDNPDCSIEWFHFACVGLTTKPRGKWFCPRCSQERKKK

Target	NP40-soluble protein abundance (concentration: 1mM)	NP40-soluble protein abundance (concentration: 2mM)	NP40-soluble protein abundance (concentration: 4mM)	NP40-soluble protein abundance (concentration: 6mM)	NP40-soluble protein abundance (concentration: 8mM)	NP40-soluble protein abundance (concentration: 10mM)
LNPEP (UniProt Q9UIQ6)	1.02 ± 0.021	1.05 ± 0.12	1.02 ± 0.057	1.06 ± 0.065	1.07 ± 0.044	1.08 ± 0.079
VTI1B (UniProt Q9UEU0)	1.01 ± 0.019	1.02 ± 0.049	0.991 ± 0.016	0.991 ± 0.043	0.967 ± 0.058	0.957 ± 0.069
UniProt Q9UJU6 and related entries	1.017 ± 0.0077	1.04 ± 0.029	1.005 ± 0.0041	1.006 ± 0.0064	0.995 ± 0.043	0.983 ± 0.047
AFF4 (UniProt Q9UHB7)	1.04 ± 0.039	1.09 ± 0.039	1.16 ± 0.044	1.16 ± 0.066	1.13 ± 0.04	1.18 ± 0.071
NAGK (UniProt Q9UJ70)	0.96 ± 0.047	0.908 ± 0.082	0.973 ± 0.048	1.04 ± 0.073	1.04 ± 0.07	0.987 ± 0.014
UniProt Q9Y316 and related entries	0.997 ± 0.036	0.89 ± 0.13	0.953 ± 0.069	0.9298 ± 0.0038	0.949 ± 0.034	0.875 ± 0.039
UTP11 (UniProt Q9Y3A2)	1.02 ± 0.026	1.04 ± 0.037	1.03 ± 0.025	1.05 ± 0.026	1.05 ± 0.018	1.08 ± 0.018
UniProt Q9UBS9-2|Q9UBS9	1 ± 0.046	0.99 ± 0.022	1 ± 0.033	1 ± 0.054	0.987 ± 0.039	1.02 ± 0.027
DNAJB11 (UniProt Q9UBS4)	0.978 ± 0.022	0.953 ± 0.052	0.942 ± 0.046	0.889 ± 0.058	0.894 ± 0.052	0.846 ± 0.061
POFUT2 (UniProt Q9Y2G5)	0.97 ± 0.033	0.967 ± 0.011	0.952 ± 0.011	0.981 ± 0.015	1 ± 0.022	0.99 ± 0.01
AK3 (UniProt Q9UIJ7)	0.911 ± 0.035	0.917 ± 0.021	0.9176 ± 0.0076	0.93 ± 0.041	0.927 ± 0.009	0.889 ± 0.055
UBQLN2 (UniProt Q9UHD9)	0.966 ± 0.033	0.988 ± 0.019	0.964 ± 0.022	0.9609 ± 0.0091	0.931 ± 0.048	0.952 ± 0.016
STUB1 (UniProt Q9UNE7)	0.989 ± 0.017	1.02 ± 0.014	0.977 ± 0.018	0.9527 ± 0.0059	0.938 ± 0.018	0.927 ± 0.019
ZMYM2 (UniProt Q9UBW7)	1 ± 0.033	0.977 ± 0.06	0.988 ± 0.023	0.963 ± 0.07	0.929 ± 0.018	0.946 ± 0.047
USP20 (UniProt Q9Y2K6)	1.01 ± 0.017	1.04 ± 0.036	1.03 ± 0.029	1.02 ± 0.02	1.015 ± 0.0077	1.01 ± 0.023
UniProt Q9UKV8	0.969 ± 0.018	0.97 ± 0.021	0.999 ± 0.02	1.008 ± 0.0047	0.992 ± 0.027	1 ± 0.015
ASF1A (UniProt Q9Y294)	0.958 ± 0.077	0.863 ± 0.091	0.904 ± 0.068	0.921 ± 0.037	0.946 ± 0.032	0.844 ± 0.11
UBQLN1 (UniProt Q9UMX0)	0.991 ± 0.053	1.01 ± 0.011	1 ± 0.033	0.983 ± 0.035	0.95 ± 0.06	0.998 ± 0.061
UniProt Q9UHH9	1.002 ± 0.003	1.04 ± 0.027	0.987 ± 0.025	1.01 ± 0.017	1.03 ± 0.026	1.02 ± 0.027
UniProt Q9Y291 and related entries	1.01 ± 0.015	1.02 ± 0.11	1 ± 0.1	0.994 ± 0.045	1 ± 0.078	0.997 ± 0.13
UniProt Q9UP95 and related entries	0.99 ± 0.015	1.01 ± 0.04	0.988 ± 0.041	0.966 ± 0.063	0.966 ± 0.024	0.965 ± 0.031
UniProt Q9UER7 and related entries	1.05 ± 0.04	1.06 ± 0.031	1.03 ± 0.012	1 ± 0.037	1 ± 0.026	1.01 ± 0.017
UniProt Q9UII2	1.04 ± 0.078	1.11 ± 0.039	0.957 ± 0.067	0.921 ± 0.09	0.835 ± 0.013	0.901 ± 0.1
UniProt Q9UKX7 and related entries	1.08 ± 0.018	1.13 ± 0.053	1.12 ± 0.039	1.14 ± 0.084	1.14 ± 0.062	1.17 ± 0.081
UniProt Q9UNL4 and related entries	0.976 ± 0.06	1 ± 0.044	1.03 ± 0.025	1.11 ± 0.033	1.13 ± 0.083	1.16 ± 0.049
UniProt Q9ULH7-4|Q9ULH7-5|Q9ULH7	1.02 ± 0.026	1.03 ± 0.022	1.01 ± 0.035	0.991 ± 0.022	0.962 ± 0.026	0.994 ± 0.041
CGGBP1 (UniProt Q9UFW8)	1.03 ± 0.021	1.13 ± 0.066	1.11 ± 0.059	1.13 ± 0.033	1.134 ± 0.0091	1.15 ± 0.086
LEMD3 (UniProt Q9Y2U8)	1.04 ± 0.013	1.05 ± 0.014	1.05 ± 0.028	0.994 ± 0.011	1.01 ± 0.013	1.01 ± 0.02
SEC63 (UniProt Q9UGP8)	0.9907 ± 0.0042	0.989 ± 0.029	0.999 ± 0.029	0.999 ± 0.033	1.01 ± 0.056	0.989 ± 0.047
UniProt Q9UI08-2|G3V5F7	1.05 ± 0.014	1.05 ± 0.062	1.04 ± 0.029	0.9877 ± 0.0042	1.01 ± 0.045	0.992 ± 0.041

Rewritten as labelled records: entries from further up
UniProt Q9UNL4 and related entries
  NP40-soluble protein abundance (concentration: 1mM): 0.976 ± 0.06; NP40-soluble protein abundance (concentration: 2mM): 1 ± 0.044; NP40-soluble protein abundance (concentration: 4mM): 1.03 ± 0.025; NP40-soluble protein abundance (concentration: 6mM): 1.11 ± 0.033; NP40-soluble protein abundance (concentration: 8mM): 1.13 ± 0.083; NP40-soluble protein abundance (concentration: 10mM): 1.16 ± 0.049
UniProt Q9ULH7-4|Q9ULH7-5|Q9ULH7
  NP40-soluble protein abundance (concentration: 1mM): 1.02 ± 0.026; NP40-soluble protein abundance (concentration: 2mM): 1.03 ± 0.022; NP40-soluble protein abundance (concentration: 4mM): 1.01 ± 0.035; NP40-soluble protein abundance (concentration: 6mM): 0.991 ± 0.022; NP40-soluble protein abundance (concentration: 8mM): 0.962 ± 0.026; NP40-soluble protein abundance (concentration: 10mM): 0.994 ± 0.041

Source: the supplement of paper PMC6411743
